From patent publication US20180119149
The exact form of at least one protein or probe is not confirmed. For some of these results: Negatives hold for the conditions tested. For some of these results: Where cells or extracts were used, other partners may take part. For some of these results: The direction of at least one scale is not stated here. For some of these results: Tags and fusion partners may be left off the protein sequences shown.

These sequences were tested against EGFR (UniProt P00533) (assay: binding assay). Details: HER2 signal more than 10-fold higher; 10 nM aptamer; purified recombinant protein; protein details: coupled to magnetic beads; label: FAM; single-stranded DNA.
With “GGCGCTTACACGCAGGTTGACTCAGACTAGACTCTACAGC [H12]” the binding signal (fraction of HER2 signal) was < 0.1.

These sequences were tested against ErbB3 (HER3) (UniProt P21860) (assay: binding assay). Details: HER2 signal more than 10-fold higher; 10 nM aptamer; purified recombinant protein; protein details: coupled to magnetic beads; label: FAM; single-stranded DNA.
“GGCGCTTACACGCAGGTTGACTCAGACTAGACTCTACAGC [H12]” was tested, and the binding signal (fraction of HER2 signal) was < 0.1.

These sequences were tested against T1, ErbB4 (HER4) (UniProt Q15303) (assay: binding assay). Details: HER2 signal more than 10-fold higher; 10 nM aptamer; purified recombinant protein; protein details: coupled to magnetic beads; label: FAM; single-stranded DNA.
T1 sequence (looked up, limits assumed): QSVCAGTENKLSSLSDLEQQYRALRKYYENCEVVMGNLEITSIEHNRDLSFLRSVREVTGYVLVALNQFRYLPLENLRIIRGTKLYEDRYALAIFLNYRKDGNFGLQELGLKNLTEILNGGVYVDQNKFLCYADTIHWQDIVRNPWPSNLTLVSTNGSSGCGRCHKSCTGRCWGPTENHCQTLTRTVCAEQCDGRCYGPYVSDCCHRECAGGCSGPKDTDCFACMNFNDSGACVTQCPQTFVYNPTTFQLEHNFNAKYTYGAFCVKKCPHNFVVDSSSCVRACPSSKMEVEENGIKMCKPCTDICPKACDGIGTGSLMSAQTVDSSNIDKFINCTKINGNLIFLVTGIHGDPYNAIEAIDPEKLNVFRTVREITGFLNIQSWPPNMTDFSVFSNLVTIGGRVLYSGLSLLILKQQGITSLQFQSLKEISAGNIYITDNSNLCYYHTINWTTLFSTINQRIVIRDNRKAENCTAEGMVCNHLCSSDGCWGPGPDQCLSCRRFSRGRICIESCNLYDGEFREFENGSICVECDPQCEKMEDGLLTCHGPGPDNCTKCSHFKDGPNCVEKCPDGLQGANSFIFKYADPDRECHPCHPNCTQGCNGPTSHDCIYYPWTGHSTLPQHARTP
With “GGCGCTTACACGCAGGTTGACTCAGACTAGACTCTACAGC [H12]” the binding signal (fraction of HER2 signal) was < 0.1.

The sequences below were run against HER2 (ErbB2) (Homo sapiens) (UniProt P04626) (assay: binding assay). Details: bead-based fluorescence, with formaldehyde cross-linking, 37 C, HEPES, 5 mM MgCl2, 1 mM CaCl2; purified recombinant protein; label: FAM; single-stranded DNA.
For “GGCGCTTACACGCAGGTTGACTCAGACTAGACTCTACAGC [H12]”, the Kd was 6.4 nM.

Same assay, conditions: bead-based fluorescence, without formaldehyde; purified recombinant protein; label: FAM; single-stranded DNA
Work on “GGCGCTTACACGCAGGTTGACTCAGACTAGACTCTACAGC [H12]” yielded a Kd of 8.2 nM.

Same assay, conditions: bead-based fluorescence; purified recombinant protein; label: FAM; single-stranded DNA
“ATTGGGTCTATGGGTTGAATCATTTCGGACGTTTTACGTA [H2]”: binds.
“CAATTGGCGCGGGGATTCCGCACCCTCGAATGTTCAGGGC [H32]”: binds.
“GAATCCTTCACTGGTGGGTTCTGTTTCGGCTTTTTAAAAT [H20]”: binds.
“GATTGGCAGTTAGCGTTTTTCTGAGCATTCGAAGGTTATA [H17]”: binds.
“GTCGAGAGTATAATATTTCCGCTTAAACTAGTGTGTCGCC [H29]”: binds.
“GTGTGCAGCAACGAGACTCAGCGACTAGCCCGTACGCCTG [H9]”: binds.
“TGCCCCTAGGCGTGGCTGCAGCGTCTAATTGTGTTTATGA [H1]”: binds.

Same assay, conditions: range over all sequences; 10 nM, bead fluorescence; purified recombinant protein; label: FAM; single-stranded DNA
“AACCGTAGGTGAAACGGAAGTCCCGGTTGGGGATCAATAT [H6]”: binds.
“AACCTTAGTAGGTACTCATGACGTGGTCCAAGCCTTGTTT [H7]”: binds.
“AACTGAGTCCATGCTACTAGCAGCCTGAGGTGGATACTCT [H50]”: binds.
“ACAATTGAGGCTATCAGTTCTGCTAGAAGTTGACTGGATC [H54]”: binds.
“ACCATGAACAGCTGGCATTCCATGGATCTAACGCGGAATT [H31]”: binds.
“AGTCAGGGTGAAGAACCCGTGTCACCGGTCATTTTCTAAT [H28]”: binds.
“CAGAACTGTGACATGGCTTGGCCCATGACTTAAAGGAGTG [H52]”: binds.
“CATATGAACGTTTCTACAATTTTAACGAGACAGTTTTGCG [H53]”: binds.
“CATGCGGTACCGGTGAAACTAGAACGAATTTAAAGGCGAC [H21]”: binds.
“CCCAGATGAGGAATGAGGGCCTCACGTAGGGTGTGCAGCC [H48]”: binds.
“CCTTAGGCTAGGGCAATTTCAACTCGCTTGACGTCGAATA [H22]”: binds.
“CGACATGTGCTGCGTGTACGACTGTGTGCTCTATCTCGAG [H3]”: binds.
“CTACGCAACAATCATAGGTGATACCGGGCTGTTGTACAAT [H4]”: binds.
“GAGGGGGGGCCGCTACTGAGCACTCAAAGACGCAATGCCC [H8]”: binds.
“GCAAGACATAACGTATAATCATGGCGATACCCTGCTTCCG [H49]”: binds.
“GGAGTTATCCATTCGCACATAACTGCATTCATCCGCTTAG [H35]”: binds.
“GGAGTTTTAAGCGTTTGTGGCGAGATAACCTGGTTGTGCA [H47]”: binds.
“GGGCACGCATAGCAAGGCGTATATGAAGCGTCAGTTTTCC [H34]”: binds.
“GGGTATGATTTTGGACCCGAGTAGGCTATTTTAATTCAAA [H51]”: binds.
“GTAGGGATCGCTAGAAGGGTCAAAGTTAGGTCATGTAGGG [H5]”: binds.
“TAGTCTGATGCGATATACTCGGCGGTCGGGGGGGTAGGTT [H46]”: binds.
“TCTCTACCTGATGTATAATTTACGTCACTAAGTCCCGCCG [H55]”: binds.
“TGGAGTGATTGCTCTAGTAGGGTTTCATGGGGCCCGATCC [H11]”: binds.
“TGGGAAGTGTTACAATTCTGGTAGGGGTGTGGATTTAGGG [H33]”: binds.
“TGTCAGCTAACGTGGGTTTGTTACCGGTGGCTTAGTTAGC [H30]”: binds.
“TTGAGTCATTACCGTAAGTACATCAACTACTTAGTTAGTC [H26]”: binds.

What follows are sequences tested against HER2 on cells (SK-BR3, MCF-7) (Homo sapiens) (UniProt P04626) (assay: binding assay). Details: confocal imaging, 50 nM; co-localized with anti-HER2 antibody; no signal on HER2-negative MDA-MB-435 wt; protein on the cell surface; label: FAM; single-stranded DNA.
“GGCGCTTACACGCAGGTTGACTCAGACTAGACTCTACAGC [H12]”: binds.

What follows are sequences tested against HSA (human serum albumin) (Homo sapiens) (UniProt P02768) (assay: binding assay). Details: HSA-coated beads control; purified native protein; label: FAM; single-stranded DNA.
“GGCGCTTACACGCAGGTTGACTCAGACTAGACTCTACAGC [H12]”: no binding.
